Measured data: PubChem BioAssay AID743454 (Peter MacCallum Cancer Centre, 2014)

Aim: 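Knock-downs lowering viability or raising caspase 3/7 activity in vorinostat-treated resistant cells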 (primary screen)
Cells: human HCT116-VR colon cancer cells, selected for vorinostat resistance
Knock-down reagent: siRNA pool against human genes, 40 nM siRNA pool
Time to read-out: vorinostat for 24 h, read-out about 72 h after transfection
Challenge: vorinostat at 2.5 µM final
Detection: 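Cell viability by CellTiter-Fluor and caspase 3/7 activity by luminescence, each scaled to mock wells per plate, duplicates averaged, then robust z-scored over all plates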
Reading the numbers: viability robust z-score: higher = more viable cells than screen typical; caspase robust z-score: higher = more caspase 3/7 activity than screen typical
Call rule: 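a knock-down is a hit when classed RV1 or RV2 for lowered viability, or CA1 or CA2 for caspase activation; those lethal without drug were dropped; hits were retested singly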
This is one part, drawn at random, of about 18,000 reagents tested. 450 of all reagents (2.5%) count as active. 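Single biological run; no consistent viability z cut-off exists, so the class columns, not z-scores, define the calls.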 Entries without a mark were called inactive. No sequences are given here.

gene	viability hit class	caspase hit class	viability robust z-score	caspase robust z-score
ESPL1 (extra spindle pole bodies like 1, separase)	no change	no change	-1.24	3.05
ASPH (aspartate beta-hydroxylase)	no change	no change	0.3	0.01
TPM1 (tropomyosin 1)	no change	no change	-0.12	-0.45
TUBB (tubulin beta class I)	no change	no change	-0.3	1.22
ATPAF1 (ATP synthase mitochondrial F1 complex assembly factor 1)	no change	no change	0.18	-0.05
ABLIM1 (actin binding LIM protein 1)	no change	no change	-1.29	3.07
PLA2G15 (phospholipase A2 group XV)	no change	no change	0.12	0.92
HSCB (HscB mitochondrial iron-sulfur cluster cochaperone)	no change	no change	-0.3	-1.31
CALU (calumenin)	no change	no change	-0.09	-0.4
KRTAP3-3 (keratin associated protein 3-3)	no change	no change	-1.2	-0.05
CMC1 (C-X9-C motif containing 1)	no change	no change	-1	4.17
PARP10 (poly(ADP-ribose) polymerase family member 10)	no change	no change	0.62	-0.52
PRLH (prolactin releasing hormone)	no change	no change	-0.34	1.3
KCNJ4 (potassium inwardly rectifying channel subfamily J member 4)	no change	no change	-1.1	1.43
FBXW7 (F-box and WD repeat domain containing 7)	no change	no change	0.64	0.18
PLAAT3 (phospholipase A and acyltransferase 3)	no change	no change	-1.28	0.03
KLF3 (KLF transcription factor 3)	no change	no change	-0.62	1.86
PANK1 (pantothenate kinase 1)	no change	no change	-0.98	-0.62
TIMM10 (translocase of inner mitochondrial membrane 10)	no change	no change	0.48	0.04
WNT8A (Wnt family member 8A)	no change	no change	-1.09	1.29
EVI5L (ecotropic viral integration site 5 like)	no change	no change	0.14	-0.62
DNAJC16 (DnaJ heat shock protein family (Hsp40) member C16)	no change	no change	1.25	-0.5
TRAPPC4 (trafficking protein particle complex subunit 4)	no change	no change	-0.32	-0.31
